{"source": "PubChem BioAssay AID1508597 – Cure First | 2020", "assay": "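Genes whose silencing sensitises or protects ovarian cancer cells against rucaparib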 (primary screen)", "cells": "human ovarian carcinoma lines grown from tumours: OCI-P5x (papillary serous) and OCI-C5x (clear cell)", "reagent": "siRNA pool against human genes, 1.25 pmol siRNA per well", "timing": "72 h or 96 h, depending on the cell culture", "conditions": "rucaparib 20 µM (about IC30) or vehicle, present until read-out", "rucaparib or vehicle": "Rucaparib", "cell line": "OCI-P5x (serous)", "measured": "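ATP luminescence measured at 72 or 96 h according to the culture, then normalised and expressed as percent viability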", "direction": "viability, normalised: higher = more viable cells remaining", "hit rule": "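Active when normalised viability falls below 80 percent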", "calls": "active = viability under 80%; inactive = viability 80% or more", "note": "This is a random part of the about 2,100 reagents, under one of the conditions tested. 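Calls flag viability under 80% in either arm, not effects specific to rucaparib; the reference for percent is not stated.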 Some reagents were tested in more than one well and are listed for each. Not stated in the record: the 100% reference."}
{"Gene": "DAPK1 (GeneID 1612)", "technical replicate": "1", "viability, normalised (%)": 99.6, "Call": "inactive"}
{"Gene": "DAPK1 (GeneID 1612)", "technical replicate": "2", "viability, normalised (%)": 114, "Call": "inactive"}
{"Gene": "DAPK1 (GeneID 1612)", "technical replicate": "3", "viability, normalised (%)": 98.4, "Call": "inactive"}
{"Gene": "SP100 (GeneID 6672)", "technical replicate": "1", "viability, normalised (%)": 61.9, "Call": "active"}
{"Gene": "SP100 (GeneID 6672)", "technical replicate": "2", "viability, normalised (%)": 57.9, "Call": "active"}
{"Gene": "SP100 (GeneID 6672)", "technical replicate": "3", "viability, normalised (%)": 61.1, "Call": "active"}
{"Gene": "FGFR2 (GeneID 2263)", "technical replicate": "1", "viability, normalised (%)": 66.1, "Call": "active"}
{"Gene": "FGFR2 (GeneID 2263)", "technical replicate": "1", "viability, normalised (%)": 72.4, "Call": "active"}
{"Gene": "FGFR2 (GeneID 2263)", "technical replicate": "2", "viability, normalised (%)": 66.2, "Call": "active"}
{"Gene": "FGFR2 (GeneID 2263)", "technical replicate": "2", "viability, normalised (%)": 68.9, "Call": "active"}
{"Gene": "FGFR2 (GeneID 2263)", "technical replicate": "3", "viability, normalised (%)": 77.6, "Call": "active"}
{"Gene": "FGFR2 (GeneID 2263)", "technical replicate": "3", "viability, normalised (%)": 63.4, "Call": "active"}
{"Gene": "PXK (GeneID 54899)", "technical replicate": "1", "viability, normalised (%)": 85.6, "Call": "inactive"}
{"Gene": "PXK (GeneID 54899)", "technical replicate": "2", "viability, normalised (%)": 112, "Call": "inactive"}
{"Gene": "PXK (GeneID 54899)", "technical replicate": "3", "viability, normalised (%)": 71.9, "Call": "active"}
{"Gene": "TANK (GeneID 10010)", "technical replicate": "1", "viability, normalised (%)": 79.5, "Call": "active"}
{"Gene": "TANK (GeneID 10010)", "technical replicate": "2", "viability, normalised (%)": 55.7, "Call": "active"}
{"Gene": "TANK (GeneID 10010)", "technical replicate": "3", "viability, normalised (%)": 77.8, "Call": "active"}
{"Gene": "TESK2 (GeneID 10420)", "technical replicate": "1", "viability, normalised (%)": 112, "Call": "inactive"}
{"Gene": "TESK2 (GeneID 10420)", "technical replicate": "2", "viability, normalised (%)": 93.9, "Call": "inactive"}
{"Gene": "TESK2 (GeneID 10420)", "technical replicate": "3", "viability, normalised (%)": 77.2, "Call": "active"}
{"Gene": "SATB1 (GeneID 6304)", "technical replicate": "1", "viability, normalised (%)": 48.2, "Call": "active"}
{"Gene": "SATB1 (GeneID 6304)", "technical replicate": "2", "viability, normalised (%)": 50.6, "Call": "active"}
{"Gene": "SATB1 (GeneID 6304)", "technical replicate": "3", "viability, normalised (%)": 66.2, "Call": "active"}
{"Gene": "PIP5K1B (GeneID 8395)", "technical replicate": "1", "viability, normalised (%)": 78.5, "Call": "active"}
{"Gene": "PIP5K1B (GeneID 8395)", "technical replicate": "2", "viability, normalised (%)": 49.7, "Call": "active"}
{"Gene": "PIP5K1B (GeneID 8395)", "technical replicate": "3", "viability, normalised (%)": 63.3, "Call": "active"}
{"Gene": "ERCC6 (GeneID 2074)", "technical replicate": "1", "viability, normalised (%)": 68.1, "Call": "active"}
{"Gene": "ERCC6 (GeneID 2074)", "technical replicate": "2", "viability, normalised (%)": 64.8, "Call": "active"}
{"Gene": "ERCC6 (GeneID 2074)", "technical replicate": "3", "viability, normalised (%)": 64.9, "Call": "active"}
{"Gene": "CSNK1A1 (GeneID 1452)", "technical replicate": "1", "viability, normalised (%)": 84.9, "Call": "inactive"}
{"Gene": "CSNK1A1 (GeneID 1452)", "technical replicate": "2", "viability, normalised (%)": 83, "Call": "inactive"}
{"Gene": "CSNK1A1 (GeneID 1452)", "technical replicate": "3", "viability, normalised (%)": 99.3, "Call": "inactive"}
